Data from PMC8834516.
No constants are given. Whether binding was seen depends on the method and setting. Binding seen in cells or lysates may run through a third protein. Here binding means that the protein was enriched with, or labelled near, the bait; the list need not be complete.

T1: Transglutaminase-2 (mouse (endogenous in mouse brain)) (UniProt P21981)
T1 sequence: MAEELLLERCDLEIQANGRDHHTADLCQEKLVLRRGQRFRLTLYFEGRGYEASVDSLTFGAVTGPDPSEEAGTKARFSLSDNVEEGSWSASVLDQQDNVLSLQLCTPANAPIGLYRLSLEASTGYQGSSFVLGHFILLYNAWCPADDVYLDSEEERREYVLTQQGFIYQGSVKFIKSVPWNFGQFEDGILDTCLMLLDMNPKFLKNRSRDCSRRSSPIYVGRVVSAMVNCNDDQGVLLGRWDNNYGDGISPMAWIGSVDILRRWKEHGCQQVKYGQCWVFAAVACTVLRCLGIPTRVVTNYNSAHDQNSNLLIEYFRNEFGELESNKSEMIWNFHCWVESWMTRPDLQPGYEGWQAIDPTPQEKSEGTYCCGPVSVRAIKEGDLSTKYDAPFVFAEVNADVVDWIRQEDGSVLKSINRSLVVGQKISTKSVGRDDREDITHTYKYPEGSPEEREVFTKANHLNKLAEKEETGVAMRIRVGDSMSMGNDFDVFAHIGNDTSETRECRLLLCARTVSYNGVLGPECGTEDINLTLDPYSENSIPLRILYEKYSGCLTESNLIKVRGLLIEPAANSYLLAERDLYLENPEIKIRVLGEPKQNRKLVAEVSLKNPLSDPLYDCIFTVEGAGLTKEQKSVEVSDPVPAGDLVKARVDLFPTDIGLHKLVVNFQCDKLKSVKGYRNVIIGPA


Target: T1, Transglutaminase-2 (mouse (endogenous in mouse brain))
Experiment: affinity purification with mass spectrometry; TG2 immunoprecipitated from total brain homogenates of 18-month-old WT and APP23 mice with anti-TG2 antibody IA12 crosslinked to protein A/G magnetic beads, 22 h at 4 °C; IP lysis buffer 25 mM Tris pH 7.4, 150 mM NaCl, 1 mM EDTA, 1% NP40, 5% glycerol; on-bead trypsin digest, SWATH MS; TG2−/− cohorts as background, z-test p ≤ 0.05, n = 5 per cohort

Binder	binding
Lethal(2) giant larvae protein homolog 1 (protein, UniProt Q80Y17 1-1036) MMKFRFRRQGADPQREKLKQELFAFHKTVEHGFPNQPSALAFDPELRIMAIGTRSGAVKIYGAPGVEFTGLHRDAATVTQMHFLPGQGRLLTLLDDSSLHLWEIIHHNGCAHLEEGLSFHPPSRPSFDNASFPASLTRVTVVLLVAGNTAALGTESGSIFFLDVATLALLEGQTLSPDVVLRSVPDDYRCGKALGPVESLQGHLQDPSKILIGYSRGLLVIWSQATQSVDNVFLGNQQLESLCWGRDGSSIISSHSDGSYAIWSTDTGSPPTLQPTVVTTPYGPFPCKAINKILWRSCESGDHFIIFSGGMPRASYGDRHCVSVLRAETLVTLDFTSRVIDFFTVHSTQPEDECDNPQALAVLLEEELVVLDLQTPGWPAVPAPYLAPLHSSAITCSAHVANVPSKLWARIVSAGEQQSPQPASSALSWPITGGRNLAQEPSQRGLLLTGHEDGTVRFWDASGVALRPLYKLSTAGLFQTDCEHADSLAQAVEDDWPPFRKVGCFDPYSDDPRLGIQKVALCKYTAQMVVAGTAGQVLVLELSEVPAEHAVSVANVDLLQDREGFTWKGHERLNPHTGLLPWPAGFQPRMLIQCLPPAAVTAVTLHAEWSLVAFGTSHGFGLFDYQRKSPVLARCTLHPNDSLAMEGPLSRVKSLKKSLRQSFRRIRKSRVSGKKRTPAASSKLQEANAQLAEQTCPHDLEMTPVQRRIEPRSADDSLSGVVRCLYFADTFLRDATHHGPTMWAGTNSGSVFAYALEVPAATAGGEKRPEQAVEAVLGKEVQLMHRAPVVAIAVLDGRGRPLPEPYEASRDLAQAPDMQGGHAVLIASEEQFKVFTLPKVSAKTKFKLTAHEGCRVRKVALATFASVMSEDYAETCLACLTNLGDVHVFSVPGLRPQVHYSCIRKEDISGIASCVFTRHGQGFYLISPSEFERFSLSARNITEPLCSLDISWPQNATQPRLQESPKLSQANGTRDIILAPESCEGSPSSAHSKRADTMEPPEAALSPVSIDSAASGDTMLDTTGDVTVEYVKDFLG	binds
Amyloid-beta A4 precursor protein-binding family B member 1 (protein, UniProt Q9QXJ1 1-710) MSVPSSLSQSAINANSHGGPALSFPLPLHAAHNQLLNAKLQATAVVPKDLRSAMGEGSVPEPGPANAKWLKEGQNQLRRAATAHRDQNRNVTLTLAEEASQEAETAPLGPKGLMHLYSELELSAHNAANRGLHGSALIINTQEQGPDEGEEKAAGEAEEDDEDEEEEEEEEDLSSPPGLPEPLENVEVPSGPQALTDGPREHSKSASLLFGMRNSAASDEDSSWATLSQGSPSYGSPEDTDSFWNPNAFETDSDLPAGWMRVQDTSGTYYWHIPTGTTQWEPPGRASPSQGSSPQEESQLTWTGFAHQEGFEEGEFWKDEPSEEAPMELGLKDPEEATLSFPAQSLSPEPVPQEEEKLSQRNANPGIKCFAVRSLGWVEMTEEELAPGRSSVAVNNCIRQLSYHKNNLHDPMAGGWGEGKDLLLQLEDETLKLVEPQNQTLLHAQPIVSIRVWGVGRDSGSNRDFAYVARDKLTQMLKCHVFRCEAPAKNIATSLHEICSKIMSERRNARCLVNGLSLDHSKLVDVPFQVEFPAPKNELVQKFQVYYLGNVPVAKPVGVDVINGALESVLSSSSREQWTPSHVSVAPATLTILHQQTEAVLGECRVRFLSFLAVGRDVHTFAFIMAAGPASFCCHMFWCEPNAASLSEAVQAACMLRYQKCLDARSQTSTSCLPAPPAESVARRVGWTVRRGVQSLWGSLKPKRLGSQTP	binds
Cystatin-C (protein, UniProt P21460 21-140) ATPKQGPRMLGAPEEADANEEGVRRALDFAVSEYNKGSNDAYHSRAIQVVRARKQLVAGVNYFLDVEMGRTTCTKSQTNLTDCPFHDQPHLMRKALCSFQIYSVPWKGTHSLTKFSCKNA	binds
Epoxide hydrolase 1 (protein, UniProt Q9D379 1-455) MWLELILASVLGFVIYWFVSRDKEETLPLEDGWWGPGSKPSAKEDESIRPFKVETSDEEIKDLHQRIDRFRASPPLEGSRFHYGFNSSYLKKVVSFWRNEFDWRKQVEILNQYPHFKTKIEGLDIHFIHVKPPQLPSGRTPKPLLMVHGWPGSFYEFYKIIPLLTDPKTHGLSDEHVFEVICPSIPGYGFSEASSKKGLNSVATARIFYKLMSRLGFQKFYIQGGDWGSLICTNIAQMVPNHVKGLHLNMSFISRNIYSLTPLLGQRFGRFLGYTEKDLELLYPFKEKVFYNIMRESGYLHIQATKPDTVGCALNDSPVGLAAYILEKFSTWTKSEYRELEDGGLERKFSLEDLLTNIMIYWTTGTIVSSQRFYKENLGQGVMVHRHEGMKVFVPTGYSAFPSEILHAPEKWVKVKYPKLISYSYMERGGHFAAFEEPKLLAQDIRKFVSLAELQ	binds
Phosphatidylinositol-binding clathrin assembly protein (protein, UniProt Q7M6Y3 1-660) MSGQSLTDRITAAQHSVTGSAVSKTVCKATTHEIMGPKKKHLDYLIQCTNEMNVNIPQLADSLFERTTNSSWVVVFKSLITTHHLMVYGNERFIQYLASRNTLFNLSNFLDKSGLQGYDMSTFIRRYSRYLNEKAVSYRQVAFDFTKVKRGADGVMRTMNTEKLLKTVPIIQNQMDALLDFNVNSNELTNGVINAAFMLLFKDAIRLFAAYNEGIINLLEKYFDMKKNQCKEGLDIYKKFLTRMTRISEFLKVAEQVGIDRGDIPDLSQAPSSLLDALEQHLASLEGKKIKDSTAASRATTLSNAVSSLASTGLSLTKVDEREKQAALEEEQARLKALKEQRLKELAKKPHTSLTTAASPVSTSAGGIMTAPAIDIFSTPSSSNSTSKLPNDLLDLQQPTFHPSVHAMSAAPQGASTWGDPFSATLDAVEDAIPSLNPFLTKSSGDVHLPIASDVSTFTTRTPTHEMFVGFSPSPVAQPHSSAGLNVDFESVFGNKSTNVAVDSGGFDELGGLLKPTVASQNQSLPVAKLPPNKLVSDDLDSSLANLVGNLGIGNGTTKNDVSWSQPGEKKLTGGSNWQPKVAPTTAWSAATMNGMHFPQYAPPVMAYPATTPTGMIGYGIPPQMGSVPVMTQPTLIYSQPVMRPPNPFGPVSGAQIQFM	binds
Cadherin-12 (protein, UniProt Q5RJH3 55-794) GWVWNQFFVLEEYMGSEPQYVGKLHSDLDKGEGTVKYTLSGDGAGTVFTIDETTGDIHAIRSLDREEKPFYTLRAQAVDIETRKPLEPESEFIIKVQDINDNEPKFLDGPYVASVPEMSPVGAYVLQVKATDADDPTYGNSARVVYSILQGQPYFSIDPKTGVIRTALPNMDREVKEQYQVLIQAKDMGGQLGGLAGTTVVNITLTDVNDNPPRFPKSIFHLKVPESSPVGSAIGRIRAVDPDFGKNAEIEYNIVPGDGGNLFDIVTDEDTQEGIIKLKKPLDFETKKAYTFKVEASNLHLDHRFHSAGPFKDTATVKISVLDVDEPPVFSKPLYTMEVYEDTPVGTIIGAVTAQDLDVGSSAVRYFIDWKSDGESYFTIDGTEGTIATNELLDRENMAQYNFSIIASKVSNPLLTSKVNILINVLDVNEFPPEISVPYETAVCENAKPGQIIQIVGAVDRDLSPAGQQFSFRLAPEAVIKPNFTVHDFRNNTAGIETRRNGYSRRQQELYFLPIVIEDSSYPVQSSTNTMTIRVCRCDSDGTILSCNVEAIFLPVGLSTGALIAILLCMVILLAIVVLYVALRRQRKKDTLMTSKEDIRDNVIHYDDEGGGEEDTQAFDIGALRNPKVIEENKIRRDIKPDSLCLSRQRPQVEDNTDIRDFIHRRLQENDADPAAPPYDSLATYAYEGNGSVAESLSSIDSLTTEADQDYDYLSDWGPRFKVLADMFGEEESYNPDNVT	binds
Mitochondrial peptide methionine sulfoxide reductase (protein, UniProt Q9D6Y7 21-233) MGDSASKVISAEEALPGRTEPIPVTAKHHVSGNRTVEPFPEGTQMAVFGMGCFWGAERKFWVLKGVYSTQVGFAGGHTRNPTYKEVCSEKTGHAEVVRVVYRPEHISFEELLKVFWENHDPTQGMRQGNDFGTQYRSAVYPTSAVQMEAALRSKEEYQKVLSKHNFGPITTDIREGQVFYYAEDYHQQYLSKNPDGYCGLGGTGVSCPMAIKK	binds
